For one series, the target named is T1, LIN28B CSD (24-111) (UniProt Q6ZN17).
T1 sequence (looked up): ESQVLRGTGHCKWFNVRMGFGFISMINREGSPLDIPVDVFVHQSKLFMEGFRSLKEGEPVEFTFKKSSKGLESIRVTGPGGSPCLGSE
Briefly: EMSA. The following applies: 200 nM protein, 5 nM RNA, 50 uM ZnCl2, complex control of inhibitor assay; 50 mM Tris pH 7.5, 100 mM NaCl, 10 mM beta-mercaptoethanol, 50 uM ZnCl2, 2% DMSO, 0.01% Tween-20, 12% glycerol, room temperature; native PAGE 0.25x TAE at 4 C; recombinant protein; residues 24-111; label: 3'-Cy3. On the technique in general: A gel shift assay detects complexes by their altered migration in electrophoresis.

Another series concerns the target T2, LIN28A(16-187) (UniProt Q9H9Z2).
T2 sequence (looked up): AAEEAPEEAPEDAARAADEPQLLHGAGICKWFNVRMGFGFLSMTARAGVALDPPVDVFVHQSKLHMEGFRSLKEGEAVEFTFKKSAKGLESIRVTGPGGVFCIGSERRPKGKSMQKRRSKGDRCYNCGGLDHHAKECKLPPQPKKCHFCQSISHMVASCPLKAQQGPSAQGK
Briefly: EMSA. The following applies: 10 nM protein, 5 nM RNA, 50 uM ZnCl2, complex control of inhibitor assay; 50 mM Tris pH 7.5, 100 mM NaCl, 10 mM beta-mercaptoethanol, 50 uM ZnCl2, 2% DMSO, 0.01% Tween-20, 12% glycerol, room temperature; native PAGE 0.25x TAE at 4 C; recombinant protein; residues 16-187; label: 3'-Cy3.

The exact form of at least one protein or probe is not confirmed. At least one verdict rests on a figure or table, not on a statement of the authors. Tags and fusion partners may be left off the protein sequences shown.

On to “GGGGUAGUGAUUUUACCCUGUUUAGGAGAU [pre-E let-7f-1-Cy3]”, for which the binding result with LIN28B CSD (24-111) and in the series with LIN28A(16-187) was “binds” in each case.
